NP40-soluble protein abundance data for 7 targets are collected here from the supplement of paper PMC6411743.

The chains behind the UniProt entries cited, without tags or fusion partners. Where a name states a change or a piece, a line headed by the entry shows the natural chain unless it says otherwise.
UniProt Q8NCP5: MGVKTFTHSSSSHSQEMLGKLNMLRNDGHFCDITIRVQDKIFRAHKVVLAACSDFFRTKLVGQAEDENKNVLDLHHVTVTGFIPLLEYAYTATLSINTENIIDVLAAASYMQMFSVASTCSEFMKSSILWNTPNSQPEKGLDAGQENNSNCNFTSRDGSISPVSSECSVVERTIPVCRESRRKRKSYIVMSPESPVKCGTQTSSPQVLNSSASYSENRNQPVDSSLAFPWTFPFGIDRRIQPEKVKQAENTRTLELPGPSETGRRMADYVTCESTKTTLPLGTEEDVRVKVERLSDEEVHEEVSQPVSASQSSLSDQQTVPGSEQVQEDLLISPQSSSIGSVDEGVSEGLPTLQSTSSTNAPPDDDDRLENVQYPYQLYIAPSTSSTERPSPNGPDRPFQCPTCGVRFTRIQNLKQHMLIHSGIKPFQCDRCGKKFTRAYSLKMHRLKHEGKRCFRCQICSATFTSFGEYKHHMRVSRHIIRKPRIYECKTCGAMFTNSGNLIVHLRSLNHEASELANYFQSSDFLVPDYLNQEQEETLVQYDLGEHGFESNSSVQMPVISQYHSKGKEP
UniProt P01848, whole entry, looked up: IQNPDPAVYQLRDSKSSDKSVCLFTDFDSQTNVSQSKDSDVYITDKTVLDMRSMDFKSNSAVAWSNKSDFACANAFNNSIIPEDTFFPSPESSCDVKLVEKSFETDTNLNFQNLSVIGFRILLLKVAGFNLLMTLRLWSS
UniProt Q9H0W9: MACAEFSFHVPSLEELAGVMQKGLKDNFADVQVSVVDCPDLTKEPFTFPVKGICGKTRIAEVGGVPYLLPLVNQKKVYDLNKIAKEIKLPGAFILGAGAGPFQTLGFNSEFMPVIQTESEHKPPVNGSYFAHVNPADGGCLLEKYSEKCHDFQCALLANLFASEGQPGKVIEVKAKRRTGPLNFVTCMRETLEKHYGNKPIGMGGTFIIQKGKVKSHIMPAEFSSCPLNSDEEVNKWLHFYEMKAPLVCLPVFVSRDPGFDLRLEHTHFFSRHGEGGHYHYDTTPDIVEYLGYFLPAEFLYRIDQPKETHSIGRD
UniProt Q0VDG4: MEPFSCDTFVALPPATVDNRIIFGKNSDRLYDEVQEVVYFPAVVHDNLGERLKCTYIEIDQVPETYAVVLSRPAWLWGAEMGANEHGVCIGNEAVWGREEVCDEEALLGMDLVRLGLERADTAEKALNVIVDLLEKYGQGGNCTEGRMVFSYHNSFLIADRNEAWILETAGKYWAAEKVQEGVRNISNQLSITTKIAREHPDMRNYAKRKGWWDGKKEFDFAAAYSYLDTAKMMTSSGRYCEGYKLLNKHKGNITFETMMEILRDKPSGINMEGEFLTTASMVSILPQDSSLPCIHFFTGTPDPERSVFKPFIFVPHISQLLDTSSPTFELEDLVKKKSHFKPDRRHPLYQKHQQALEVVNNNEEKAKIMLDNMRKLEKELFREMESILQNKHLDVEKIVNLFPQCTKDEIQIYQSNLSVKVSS
UniProt P36969, whole entry: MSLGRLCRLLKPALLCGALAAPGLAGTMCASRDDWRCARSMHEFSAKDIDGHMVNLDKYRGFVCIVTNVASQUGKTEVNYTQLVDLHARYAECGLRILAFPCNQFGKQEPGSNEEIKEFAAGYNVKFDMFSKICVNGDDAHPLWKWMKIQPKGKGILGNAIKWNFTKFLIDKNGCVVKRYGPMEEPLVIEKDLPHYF
UniProt Q96C36: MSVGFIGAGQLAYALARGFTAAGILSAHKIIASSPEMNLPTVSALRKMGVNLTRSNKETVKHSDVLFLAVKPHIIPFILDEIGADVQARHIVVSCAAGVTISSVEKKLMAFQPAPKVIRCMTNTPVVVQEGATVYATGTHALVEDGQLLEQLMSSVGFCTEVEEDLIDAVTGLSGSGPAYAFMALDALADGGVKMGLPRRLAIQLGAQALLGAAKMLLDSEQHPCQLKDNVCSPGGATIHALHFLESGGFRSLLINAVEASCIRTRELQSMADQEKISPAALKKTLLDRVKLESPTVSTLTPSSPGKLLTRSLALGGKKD

Compound in the test: Nc1nc2c(ncn2[C@@H]2O[C@H](COP(=O)(O)OP(=O)(O)OP(=O)(O)O)[C@@H](O)[C@H]2O)c(=O)[nH]1 [guanosine triphosphate]
Kind of test: NP40-soluble protein abundance relative to vehicle (solubility fold change) (ratio); higher = more soluble protein in presence of GTP. The procedure, abridged: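 Eight concentrations, 0.1 to 10 mM, were tested on Jurkat crude lysate for 10 min at room temperature and then 3 min at 37 °C, in three independent experiments. The lysate was solubilised with 0.8% NP40 and benzonase, ultracentrifuged, and the supernatant TMT-labelled for LC-MS/MS. Each value is the fold change against the detergent-processed vehicle in its own replicate, from vsn-normalised intensities.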

± gives the standard deviation of the averaged measurements. Some of the results follow.

With “A0A087WV65|H0YEM9 and related entries (UniProt Q8NCP5)”, the NP40-soluble protein abundance is, setting by setting: (concentration: 0.1mM) 1.06 ± 0.046; (concentration: 0.5mM) 0.962 ± 0.021; (concentration: 1mM) 1.02 ± 0.014; (concentration: 2mM) 1.06 ± 0.05; (concentration: 4mM) 1.17 ± 0.039; (concentration: 6mM) 1.14 ± 0.076. For the same target, the NP40-soluble protein abundance (concentration: 8mM) was found to be 1.31 ± 0.11 and the NP40-soluble protein abundance (concentration: 10mM) was found to be 1.13 ± 0.074.
Regarding “A0A087WWC6|P01848 and related entries (UniProt Q6P4I7+P01848)”, the NP40-soluble protein abundance turned out to be 0.933 ± 0.081 (concentration: 0.1mM); 1.01 ± 0.14 (concentration: 0.5mM); 0.994 ± 0.11 (concentration: 1mM); 0.974 ± 0.16 (concentration: 2mM); 0.926 ± 0.12 (concentration: 4mM); 0.994 ± 0.14 (concentration: 6mM). Further, the NP40-soluble protein abundance reads like this: (concentration: 8mM) 0.994 ± 0.05; (concentration: 10mM) 1 ± 0.085.
As to “A0A087WT99|Q9H0W9 and related entries (UniProt Q9H0W9)”, the NP40-soluble protein abundance (concentration: 0.1mM) turned out to be 0.993 ± 0.094; the NP40-soluble protein abundance (concentration: 0.5mM) turned out to be 0.942 ± 0.069; the NP40-soluble protein abundance (concentration: 1mM) was determined as 0.925 ± 0.048; the NP40-soluble protein abundance (concentration: 2mM) turned out to be 0.899 ± 0.068; the NP40-soluble protein abundance (concentration: 4mM) worked out at 0.872 ± 0.058; the NP40-soluble protein abundance (concentration: 6mM) was 0.897 ± 0.087. Further, the NP40-soluble protein abundance came to 0.901 ± 0.11 (concentration: 8mM) and 0.848 ± 0.053 (concentration: 10mM).
“A0A087WW14|Q0VDG4 and related entries (UniProt Q0VDG4)”: the NP40-soluble protein abundance (concentration: 0.1mM) amounted to 1.07 ± 0.07; the NP40-soluble protein abundance (concentration: 0.5mM) amounted to 1 ± 0.052; the NP40-soluble protein abundance (concentration: 1mM) turned out to be 0.9363 ± 0.0053; the NP40-soluble protein abundance (concentration: 2mM) came out at 0.994 ± 0.07; the NP40-soluble protein abundance (concentration: 4mM) was 0.954 ± 0.031; the NP40-soluble protein abundance (concentration: 6mM) came to 0.935 ± 0.062. For the same target, the NP40-soluble protein abundance amounted to 0.9532 ± 0.0082 (concentration: 8mM) and 0.931 ± 0.057 (concentration: 10mM).
On to “A0A087WT12|A0A087X2I2|P36969 and related entries (UniProt P36969)”, for which the NP40-soluble protein abundance amounted to 0.981 ± 0.024 (concentration: 0.1mM); 0.966 ± 0.021 (concentration: 0.5mM); 0.922 ± 0.045 (concentration: 1mM); 0.924 ± 0.012 (concentration: 2mM); 0.959 ± 0.043 (concentration: 4mM); 0.932 ± 0.037 (concentration: 6mM). The NP40-soluble protein abundance reads like this: (concentration: 8mM) 0.919 ± 0.063; (concentration: 10mM) 0.873 ± 0.069.
In the case of A0A087WV52|Q9NP92 (UniProt Q9NP92), the NP40-soluble protein abundance was determined as 1.15 ± 0.15 (concentration: 0.1mM); 1.32 ± 0.29 (concentration: 0.5mM); 1.35 ± 0.39 (concentration: 1mM); 1.55 ± 0.53 (concentration: 2mM); 1.59 ± 0.62 (concentration: 4mM); 1.55 ± 0.58 (concentration: 6mM). Further, the NP40-soluble protein abundance is, setting by setting: (concentration: 8mM) 1.54 ± 0.6; (concentration: 10mM) 1.37 ± 0.52.
Consider A0A087WTV6|Q96C36 (UniProt Q96C36), for which the NP40-soluble protein abundance was 0.946 ± 0.036 (concentration: 0.1mM); 0.974 ± 0.032 (concentration: 0.5mM); 1 ± 0.066 (concentration: 1mM); 1 ± 0.071 (concentration: 2mM); 0.999 ± 0.062 (concentration: 4mM); 1.02 ± 0.1 (concentration: 6mM). Moreover, the NP40-soluble protein abundance by setting is: (concentration: 8mM) 1.01 ± 0.093; (concentration: 10mM) 1.01 ± 0.11.
